Patent publication US10363323B2 (RUPRECHT-KARLS-UNIVERSITAT HEIDELBERG, priority 2011, dated 2019)

Assay: general procedure: peptide synthesis; polystyrene copolymerized with polyoxyethylen; dicyclohexylcarbodiimide, hydroxybenzotriazole, benzotriazil-1-yl-oxytris (dimet)

Row | Substance | conjugation yield (conjugation step) [%] | step yield (late stage modification step) [%]
1 | stearoyl-[K(DOTA)]3-NLSTSNPLGFFPDHQLDP-amide | 55 | –
2 | stearoyl-[K(DOTA[Gd])]3-NLSTSNPLGFFPDHQLDP-amide | – | 77
